Series [1] is described as follows: Microinjection tests with glass capillaries. The following applies: 0.5 μM solution in water or PBS. As for the experimental part:
The commercial dye Atto 647N is preferred in many fluorescence microscopy studies, especially when high excitation powers are used. […] For live cell studies, it is desirable to introduce aqueous solutions of the dye (e.g. coupled to antibodies) via microinjection into cells. […] These tests were performed with a ˜0.5 μM solution of Atto 647N in water or PBS, filled into microinjection pipettes (Femtotips®, Eppendorf, Hamburg, Germany and home made capillaries). The capillaries got blocked by the dye and no fluid could be injected, even under the maximally available pressure of ˜4000 hPa. The walls, but not the interior of the capillaries brighten up when irradiated. On the other hand, if 50% (v/v) ethanol is used as solvent, a 0.5 μM solution is injectable, but this solvent system is not compatible with live cells.
Thereafter, the suitability of the dye 6 for microinjection was tested under the same conditions: A 0.5 μM solution of the dye in water was filled into the capillary tubes (Femtotips®). Neither the walls of the capillaries lit up noticeably upon fluorescence excitation, nor were the capillaries blocked: upon application of a normal injection pressure (˜90 hPa), the flow was not impeded.

Series [2] deals with formaldehyde-fixed Ptk2 cells. Put plainly: Immunostaining of the TOM complex, confocal and STED imaging. The class given is cell-based. The following applies: for background in immunostaining (unspecific binding): antibody conjugates. From the text: To evaluate the performance of the new dyes in optical microscopy, the mitochondrial entry gate—the TOM complex—was stained in formaldehyde-fixed Ptk2 cells with a Tom20 specific primary antibody (Santa Cruz Biotechnology, Santa Cruz, Calif., USA). A fluorescent antibody labelled with the compound 6 was applied as a secondary marker (FIG. 3, lower panels). For comparison, the same secondary antibodies were labelled with Atto 647N fluorophore and used for imaging of the TOM complex (FIG. 3, upper panels). Imaging was performed with the STED microscope described recently [B. Harke, J. Keller, C. K. Ullal, V. Westphal, A. Schönle, S. W. Hell, Opt. Expr. 2008, 16, 4154-4162].

Series [3] deals with fixed human cells (cell line U373). Put plainly: Bleaching resistance and fluorescence depletion, β-tubulin staining. The class given is cell-based. The following applies: for bleaching resistance, 6 compared with 6D: 635 nm excitation and STED conditions, coupled to sheep-anti-mouse antibodies; for depletion efficiency (STED efficiency) as function of depletion beam power: excitation power 2.7 μW. The protocol: The bleaching resistances of the compounds 6 and 6D were compared in fixed human cells (cell line U373). The NHS esters of both dyes were coupled to sheep-anti-mouse antibodies (Dianova, Hamburg, Germany) and used to stain β-tubulin via anti-β-tubulin antibodies from mouse (Sigma, Munich, Germany). Up to 100 frames were imaged from the same region and the bleaching stability was determined by exponential fits to the fluorescence intensity in selected regions of interest.
The depletion of the fluorescence as a function of the depletion beam intensity was measured for the dyes 6 and 6D in the same samples of U373 cells (FIG. 2). Excitation power was 2.7 μW.

In series [4] the test system is biological membranes. Nature of the series: Integration of dyes into biological membranes. The text has this:
With respect to biological labelling, this is the most important advantage of these dyes over the lipophilic fluorescent stains with similar spectral properties (e.g. Atto 647N).

Series [5] deals with mammalian cells (cell line U2OS). Nature of the series: Bleaching resistance of antibody-coupled dyes, Tom20 staining. Format: cell-based. From the text:
The bleaching resistance of rhodamine 6 and the commercial dye Atto647N were compared in (fixed) biological samples. Both dyes (as NHS esters) were coupled to goat-anti-rabbit antibodies (Dianova, Hamburg, Germany), and these were used for staining the mitochondrial protein Tom20 in mammalian cells (cell line U2OS). A Tom20 specific antibody (from rabbit) (Santa Cruz Biotechnology, Heidelberg, Germany) was used as a primary label. From 50 up to 100 frames were imaged from the same region. The bleaching stability was determined by exponential fits to the fluorescence intensity in selected regions of interest.

Entries after “also recorded” stand apart in the source; their conditions may differ.

This note sets out measurements from patent publication US8580579B2, “Hydrophilic and lipophilic rhodamines for labelling and imaging” (Max-Planck-Gesellschaft zur Foerderung der Wissenschaften …, priority 2009, dated 2013).

For `CC[N+]1=c2cc3c(cc2C(C)CC1(C)C)=C(c1ccccc1C(=O)N(C)CCCC(=O)O)c1cc2c4c(c1C3(C)C)CCCN4CCC2.[O-][Cl+3]([O-])([O-])[O-]` (mixture of isomers) [Atto 647N], in series [1], the “suitability of aqueous dye solution for microinjection” value (from here on “suitability of aqueous dye solution”) was “impossible”. In addition, the “background in immunostaining (unspecific binding)” value (from here on “background in immunostaining”) in series [2] is recorded as “considerable background”.

Turning to `[2H]C1=C(C([2H])([2H])S(=O)(=O)O)c2cc3c(c4c2N(CCC4)C1(C([2H])([2H])[2H])C([2H])([2H])[2H])Oc1c2c4c(cc1=C3c1c(F)c(F)c(F)c(F)c1C(=O)N(C)CCC(=O)ON1C(=O)CCC1=O)C(C([2H])([2H])S(=O)(=O)[O-])=C([2H])C(C([2H])([2H])[2H])(C([2H])([2H])[2H])[N+]=4CCC2` [Compound 9D], the “background in immunostaining” value in series [2] is recorded as “low background; also recorded: very low background”.

Turning to `CN(CCC(=O)ON1C(=O)CCC1=O)C(=O)c1c(F)c(F)c(F)c(F)c1C1=c2cc3c4c(c2Oc2c1cc1c5c2CCCN5C(C)(C)C=C1CS(=O)(=O)O)CCC[N+]=4C(C)(C)C=C3CS(=O)(=O)[O-]` [Compound 9], the “background in immunostaining” value in series [2] was “low background; also recorded: very low background”.

Regarding `[2H]C1=C(C([2H])([2H])S(=O)(=O)O)c2cc3c(c4c2N(CCC4)C1(C([2H])([2H])[2H])C([2H])([2H])[2H])Oc1c2c4c(cc1=C3c1c(F)c(F)c(F)c(F)c1C(=O)N(C)CCC(=O)O)C(C([2H])([2H])S(=O)(=O)[O-])=C([2H])C(C([2H])([2H])[2H])(C([2H])([2H])[2H])[N+]=4CCC2` [Compound 6D], in series [3], the “bleaching resistance, 6 compared with 6D” value is “vary stronger between samples than between the undeuterated and deuterated substances”; the “depletion efficiency (STED efficiency) as function of depletion beam power” value is “No differences; also recorded: behave very similarly”. In series [1], the “suitability of aqueous dye solution” value is “suitable for microinjections”. Besides, the “background in immunostaining” value in series [2] is given as “very low background”. Besides, the “integration into biological membranes” value in series [4] was “do not integrate into biological membranes”.

Consider `CN(CCC(=O)O)C(=O)c1c(F)c(F)c(F)c(F)c1C1=c2cc3c4c(c2Oc2c1cc1c5c2CCCN5C(C)(C)C=C1CS(=O)(=O)O)CCC[N+]=4C(C)(C)C=C3CS(=O)(=O)[O-]` [Compound 6], for which, in series [3], the “bleaching resistance, 6 compared with 6D” value was “vary stronger between samples than between the undeuterated and deuterated substances”; the “depletion efficiency (STED efficiency) as function of depletion beam power” value is given as “No differences; also recorded: behave very similarly”. The “suitability of aqueous dye solution” value in series [1] was “suitable for microinjections”. For the same compound, the “background in immunostaining” value in series [2] was “low cellular and mitochondrial background; also recorded: very low background”. Moreover, the “full width at half maximum of effective point spread function in STED images” value in series [2] (small structures) is recorded as “below 40 nm”. Besides, in series [5] (excitation 635 nm followed by depletion at 750 nm (STED), dye coupled to goat-anti-rabbit antibodies), the “bleaching stability relative to Atto 647N” value is reported as “comparable”. In addition, in series [5] (excitation with 635 nm light alone, without depletion at 750 nm), the “photostability, lower than that of Atto 647N” value was “ca. 8 times”. The “integration into biological membranes” value in series [4] is reported as “do not integrate into biological membranes”.
